The record followed here is publication PMC4891109.

Assay [1] addresses epidermal growth factor receptor (human (endogenous in MDA-MB-231)) (UniProt P00533). Nature of the assay: co-IP; endogenous proteins from MDA-MB-231 cell extracts (NP-40 lysis buffer); EGFR or CD47 antibody on Dynabeads Protein G, western blot for EGFR and CD47; cells with or without EGF. In general terms: In western blotting, separated proteins are transferred to a membrane and probed.

Assay [2] has as its target CD47 (human (endogenous in MDA-MB-231)) (UniProt Q08722). Nature of the assay: co-IP; as a1, but MDA-MB-231 cells pretreated with the CD47 antibody B6H12 (1 μg/ml) for 15 min before lysis.
Assay [3] has the same target. Nature of the assay: co-IP; endogenous proteins from MDA-MB-231 cell extracts (NP-40 lysis buffer); EGFR or CD47 antibody on Dynabeads Protein G, western blot for EGFR and CD47; cells with or without EGF.

No constants are given. Whether binding was seen depends on the method and setting. In cells and extracts the contact can be indirect. Some entries that bind do so weakly or less than the wild type.

On to “CD47 (from UniProt Q08722 19-323) (receptor)”, for which the binding result in assay [1] is listed as “binds”.

With “epidermal growth factor receptor (from UniProt P00533 25-1210)”, the binding result in assay [2] and in assay [3] was “binds” in each case.
